## Results of single-concentration screens

The values are deposited in ChEMBL (CHEMBL3988442, “University of Dundee, Small-Polar-MMV Screening Library” (2021)).

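Growth of Mycobacterium tuberculosis over 4 days (cholesterol / DPPC medium with tyloxapol); the read-out is not stated. Compounds at 500 µM. Direction is inferred from retests: higher values go with more growth inhibition. Of about 18,000 compounds tested this way, about 900 (5%) reached 50% or more in at least one test.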

The filed quantity is “Percent Effect” (%). How 0% and 100% were set is not recorded. Most values in the screen are low, and negative values occur. The compounds are a random part of those screened.

| # | compound | Percent Effect |
|---|---|---|
| 1 | `CC(CN)N(C)C(=O)c1ccc(C#N)cc1` (stereo not shown) | -12.17 |
| 2 | `Cc1cc(C(=O)N2C[C@@H](CO)[C@H](N(C)C)C2)nn1C` | -7.768 |
| 3 | `CC(C)c1nsc(NC2CCC(=O)N(C)C2)n1` (stereo not shown) | -0.1308 |
| 4 | `CN(Cc1ccc2c(c1)OCO2)S(=O)(=O)c1cccs1` | 22.48 |
| 5 | `CCC(C(=O)Nc1ccccc1)N1CCS(=O)(=O)CC1` (stereo not shown) | 16.3 |
| 6 | `CNS(=O)(=O)c1ncccc1N` | -7.068 |
| 7 | `CC(CNC(=O)N[C@@H](C)C(=O)N(C)C)Cc1cccs1` (stereo partly shown) | 65.62 |
| 8 | `CCOC(=O)c1cc(CC)n(CCC#N)n1` | -6.966 |
| 9 | `CCC[C@H]1CN(C(=O)CCCc2cn[nH]c2)C[C@@H]1N` | 12.36 |
| 10 | `CS(=O)(=O)NC1CCCN(c2nc3ccccc3o2)C1` (stereo not shown) | 15.87 |
| 11 | `NC(=O)C1CNc2ccccc21` (stereo not shown) | -6.893 |
| 12 | `CCc1c(C)nn(CCNC(=O)[C@H](C)NC)c1C` | -6.62 |
| 13 | `O=C(Nc1cc[nH]n1)C1Cc2ccccc2S1` (stereo not shown) | 36.14 |
| 14 | `O=C(C1CC12CCNCC2)N1CCCCC1` (stereo not shown) | -6.264 |
| 15 | `O=C1CC(C(=O)N2CCOC3(CCCC3)C2)CCN1` (stereo not shown) | -13.39 |
| 16 | `CC(=O)NCCCS(=O)(=O)c1ccc(C)cn1` | -3.998 |
| 17 | `CC(C)(C)OC(=O)N[C@H]1CCNC1` | 17.49 |
| 18 | `CCn1ccc(CN2CCC(NS(C)(=O)=O)CC2)n1` | 10.67 |
| 19 | `CC(O)Cn1cccn1` (stereo not shown) | 3.993 |
| 20 | `CC(C)(C)CCS(=O)(=O)N1CCCC1C(N)=O` (stereo not shown) | -15.05 |
| 21 | `OC1CCCN(Cc2cccc(F)c2F)C1` (stereo not shown) | 16.58 |
| 22 | `NC1(c2ccccn2)CC1` | 10.37 |
| 23 | `Nc1ccc(CN2CCNC(=O)C2)cn1` | -14.92 |
| 24 | `CN1CC(CCN)C1` | -5.364 |
| 25 | `NC(CO)c1c(Cl)cccc1Cl` (stereo not shown) | 0.02032 |
| 26 | `COc1cc(CCCN)cc(OC)c1O` | 7.522 |
| 27 | `COCc1nc(C(=O)N(C)C(C)c2ccncc2)cs1` (stereo not shown) | -1.584 |
| 28 | `CC(C)CNC(=O)CNC(=O)NCC1(C)CCCC1` | 17.01 |
| 29 | `CN(C)C1CCN(CC(=O)NCCSc2cnn[nH]2)C1` (stereo not shown) | -2.286 |
| 30 | `CCN(CC)C(=O)Cn1nc(C)c(C#N)c1N` | 3.922 |
| 31 | `NCCNC(=O)c1nc(Cn2cc(I)cn2)no1` | 6.583 |
| 32 | `CN1CCN(C2CCN(Cc3ccccn3)CC2)CC1` | 1.321 |
| 33 | `O=C(c1ccc(Br)s1)N1CCN(c2ccccn2)CC1` | 12.72 |
| 34 | `COCCN1CCCN(C(C)=O)CC1` | 3.463 |
| 35 | `CC(NC(=O)c1cc(N(C)C)ccn1)c1ncon1` (stereo not shown) | -8.771 |
| 36 | `Cn1cc(CNCC(=O)NCc2ccco2)cn1` | 0.3275 |
| 37 | `CNC(=O)COC(=O)c1ccc(OC(F)(F)F)cc1` | -8.424 |
| 38 | `CC(=O)c1ccc(C(=O)NCCN2CCOCC2)s1` | -4.009 |
| 39 | `N#CCCCNC(CO)c1ccc(Cl)cc1` (stereo not shown) | 12.72 |
| 40 | `NCC1(O)CCCc2ccccc21` (stereo not shown) | -706 |
| 41 | `NCc1cnccc1C(F)(F)F` | 1.822 |
| 42 | `OC[C@H]1CCCN1c1cnc2ccccc2n1` | 17.79 |
| 43 | `CC(C)(O)CN1CCN(Cc2ccc(N)nc2)CC1` | -5.077 |
| 44 | `CC(C)(C)C(=O)CNC(=O)c1ccc[nH]1` | 1.943 |
| 45 | `CCCn1nnnc1COc1nc(C)no1` | -1.139 |
| 46 | `CN(c1ncnc(N)c1Cl)C1CCC(O)CC1` (stereo not shown) | -3.04 |
| 47 | `CN1Cc2ccccc2CC1=O` | -22.29 |
| 48 | `OC[C@@H]1CN(CC2CC2)C[C@H]1c1nc(C2CC2)no1` | -6.107 |
| 49 | `CCN1CCN(CC(C)CNc2ccccn2)CC1` (stereo not shown) | -10.39 |
| 50 | `Fc1ccc2[nH]cnc2c1` | -2.887 |
| 51 | `CS(=O)(=O)c1ccc(N2CCNCC2)cc1` | 2.925 |
| 52 | `CC1CCN(Cc2nnnn2C2CC2)CC1` | 27.08 |
| 53 | `CN(C)[C@H]1CN(C(=O)CCn2cncn2)C[C@@H]1C1CC1` | -4.254 |
| 54 | `CCc1ccc(CN2Cc3cnn(CCO)c3C2)nc1` | 4.521 |
| 55 | `O=C(Nc1c[nH]c(=O)[nH]c1=O)C1CCCO1` (stereo not shown) | 11.19 |
| 56 | `CSCc1cccc(CNC(=O)c2ccon2)c1` | 39.82 |
| 57 | `CN1CCN(C(=O)CCSc2ccccc2)CC1` | 12.19 |
| 58 | `CNC(=O)Cn1cc(-c2ccc3c(c2)OCO3)cn1` | 0.6396 |
| 59 | `N[C@@H]1C[C@H]1c1cccc(F)c1` | 8.093 |
| 60 | `CNc1ncc(C(=O)N[C@@H]2CCOC[C@H]2O)cn1` | 9.193 |
| 61 | `COc1ccccc1NCC(=O)NCc1cnn(C)c1` | 0.5117 |
| 62 | `NC1CCN(C2CCSCC2)CC1` | 11.87 |
| 63 | `NC(=O)CN1CCCN(C(=O)c2ccc(Br)o2)CC1` | -12.27 |
| 64 | `CNC(=O)C1CCN(CC(O)c2ccccc2)CC1` (stereo not shown) | 7.32 |
| 65 | `Cc1nc(C2(N)CCC2)no1` | -7.464 |
| 66 | `Cc1cnc(N)nc1NCC(O)CN1CCCCC1` (stereo not shown) | -6.838 |
| 67 | `Cc1ncc(C(=O)N2CCOC(C#N)C2)c(Cl)c1Br` (stereo not shown) | -1.96 |
| 68 | `CC(C)CNC(=O)CSc1n[nH]c(-c2ccccn2)n1` | 21.78 |
| 69 | `OC1(CNCCCn2cc(Cl)cn2)CCCNC1` (stereo not shown) | 7.247 |
| 70 | `Cc1ccc2nc(COCC(=O)NCCN)[nH]c2c1` | 7.496 |
| 71 | `O=C(CN1CCCCCC1)NCCCn1ccnn1` | -8.754 |
| 72 | `COc1ccc(C(=O)NCc2cnn(C)c2C)o1` | -2.266 |
| 73 | `Cc1cc(CC(=O)N2C[C@@H](CO)[C@H](N(C)C)C2)on1` | -3.787 |
| 74 | `CN(c1ccccc1C(N)=O)S(C)(=O)=O` | 2.116 |
| 75 | `CCN(C)c1ccc(CN)cc1F` | -7.939 |
| 76 | `CNC(=O)C1CCCN1C(=O)C(C)(C)C` (stereo not shown) | 8.015 |
| 77 | `CS(=O)(=O)c1ccc(NC(=O)c2cnsn2)cc1` | 10.52 |
| 78 | `COc1ccc2c(c1)C(C)(O)C(=O)N2` (stereo not shown) | -12.28 |
| 79 | `CC(C)(C)CC(=O)Nc1nnc(-c2ccccn2)[nH]1` | 3.929 |
| 80 | `c1ccc(CSc2nnc(C3CC3)[nH]2)nc1` | 3.139 |
| 81 | `CC(C)CN(CC(N)=O)CC(=O)NC1CC1` | -12.32 |
| 82 | `NC(=O)C1CCCN(Cc2ccccc2Cl)C1` (stereo not shown) | 8.186 |
| 83 | `COCC(=O)NC1CCNCC1` | -11.47 |
| 84 | `N[C@H]1CN(C(=O)CCCn2ccnc2)C[C@@H]1C1CC1` | -3.326 |
| 85 | `Cc1ccc(C(=O)N2CCCN(C)CC2)nc1` | -4.819 |
| 86 | `CN(C)c1ccc(CNS(C)(=O)=O)cn1` | -4.226 |
| 87 | `CC(O)CN(CCCNS(C)(=O)=O)C1CCCCC1` (stereo not shown) | -2.921 |
| 88 | `CCn1cc(Br)c(=O)c(NC(=O)C(C)COC)c1` (stereo not shown) | -20.57 |
| 89 | `CCn1nc(C(C)C)cc1C(=O)NC(C)COC` (stereo not shown) | 22.7 |
| 90 | `OCCOC1CCCN(Cc2ccc(F)cc2F)C1` (stereo not shown) | 28.52 |
| 91 | `Cc1cc(NC(=O)NCC(O)c2ccccc2F)no1` (stereo not shown) | -26.32 |
| 92 | `O=C(CCCc1ccccc1)NCc1ccccn1` | 65.17 |
| 93 | `CCCC(N)CNS(=O)(=O)c1c(C)nn(C)c1C` (stereo not shown) | 13.6 |
| 94 | `O=C(CNc1ccccc1F)N1CCCCC1` | 77.01 |

Once more, the final 12:

| compound | Percent Effect |
|---|---|
| `COCC(=O)NC1CCNCC1` | -11.47 |
| `N[C@H]1CN(C(=O)CCCn2ccnc2)C[C@@H]1C1CC1` | -3.326 |
| `Cc1ccc(C(=O)N2CCCN(C)CC2)nc1` | -4.819 |
| `CN(C)c1ccc(CNS(C)(=O)=O)cn1` | -4.226 |
| `CC(O)CN(CCCNS(C)(=O)=O)C1CCCCC1` (stereo not shown) | -2.921 |
| `CCn1cc(Br)c(=O)c(NC(=O)C(C)COC)c1` (stereo not shown) | -20.57 |
| `CCn1nc(C(C)C)cc1C(=O)NC(C)COC` (stereo not shown) | 22.7 |
| `OCCOC1CCCN(Cc2ccc(F)cc2F)C1` (stereo not shown) | 28.52 |
| `Cc1cc(NC(=O)NCC(O)c2ccccc2F)no1` (stereo not shown) | -26.32 |
| `O=C(CCCc1ccccc1)NCc1ccccn1` | 65.17 |
| `CCCC(N)CNS(=O)(=O)c1c(C)nn(C)c1C` (stereo not shown) | 13.6 |
| `O=C(CNc1ccccc1F)N1CCCCC1` | 77.01 |